Test results published in patent US10513723B2, “Decreasing ornithine production to decrease high mannose glycoform content of recombinant proteins” (AMGEN INC., priority 2014, dated 2019).

Tested on: Cell line H (CHO cells expressing recombinant antibody)
Assay: Small scale mock perfusion, % high mannose (HILIC glycan map) of the expressed recombinant glycoprotein
Format: cell-based, Chinese hamster
Conditions: L-ornithine monohydrochloride 14.8, 6, 0.6 and 0 (control) mM in perfusion medium; FIG. 7
Protocol: Cell lines H was used in this study. Cells were maintained in 3 L Erlenmeyer shake flasks (Corning Life Sciences, Lowell, Mass.) with 1 L working volume and cultivated under standard humidified condition at 36° C., 5% CO2, and shaken at 70 rpm in an automatic CO2 incubator (Thermo Fisher Scientific, Waltham, Mass.). Cells were sub-cultured in a selective growth media containing a 500 nM concentration of methotrexate (MTX) every four days, and subsequently transferred, inoculated and cultured in a growth media for four days before being seeded in a 24 wells plate for the experiments described below. […] Different N-glycan species of antibodies were analyzed by hydrophilic-interaction liquid chromatography (HILIC). The purified antibodies were digested by N-glycosidase F (New England BioLabs, Ipswich, Mass.) at 37° C. for 2 hours to release the glycans. The released glycans were labeled with 2-aminobenzoic acid and cleaned up using GlycoClean S cartridges (Prozyme, […], Calif.). Purified glycans were then desalted and reconstituted in water for assay. HILIC chromatography was performed with a 100 mm×2.1 mm i.d BEH Glycan column using UPLC (Waters Corporation, Milford, Mass.) and the eluted glycans were detected, identified, and qualified by a fluorescence detector based on different elution times of different glycans.

Structure (SMILES): Cl.NCCC[C@H](N)C(=O)O [ornithine, L-ornithine monohydrochloride]
- % HMN (high mannose glycoform content): as the ornithine concentration was increased, the % HMN increased
